In PubChem BioAssay AID330 (DTP/NCI, 2004):
The list does not hold the whole screen: it gathers tests that were run many times, whatever their T/C, doses with no T/C, and many T/C values between a quarter and a half above the control. Other doses and runs of a compound stand elsewhere. T/C is the treated group as % of the vehicle group. Some entries give survivors of the animals treated and no T/C: the source holds a T/C of zero for them, seemingly a mark for toxic or unscored doses. Some survivor counts are full or nearly so, which does not show that the dose was tolerated: survival well below the control is almost never listed, so the zero probably covers shortened survival too. Survivors were counted at the toxicity check, usually on the fifth day, unless a day is given; later deaths do not show. Schedules are NCI's codes, taken here to give the interval after Q, in days (D) or hours (H), and the number of doses after X. Some entries were tested several times; the values are given in rising order. Where survival is the endpoint, this PubChem deposit counts one and a half times the control or more as active, and values a quarter to a half above the control carry no call in these data; other NCI protocols may use other cut-offs. Additions like (4×) count equal records among those shown. Some T/C values are followed by the survivors on the day toxicity was checked, most often the fifth; without a count, all were alive then.

Tested on: P388 leukemia ip, CD2F1 mice, survival T/C
Test: NCI In Vivo Anticancer Drug Screen. Data for tumor model P388 Leukemia (intraperitoneal) in CD2F1 (CDF1) mice
Details: T/C endpoint: median survival time, higher T/C = longer survival
[1] = dose: 100.0 mg/kg/injection, schedule: Q01DX009 (ip), vehicle: saline with Tween-80
[2] = dose: 200.0 mg/kg/injection, schedule: Q04DX003 (ip), vehicle: saline with Tween-80
[3] = dose: 240.0 mg/kg/injection, schedule: Q01DX005 (ip), vehicle: Klucel (hydroxypropylcellulose) (HPC)
[4] = dose: 200.0 mg/kg/injection, schedule: Q01DX009 (ip), vehicle: saline with Tween-80
[5] = dose: 100.0 mg/kg/injection, schedule: Q01DX001 (ip), vehicle: Klucel (hydroxypropylcellulose) (HPC)

`N#CC(NCc1ccccc1)c1ccc2c(c1)OCO2` (stereo unspecified) was tested, and the survivor count (dose: 50.0 mg/kg/injection, schedule: Q01DX009 (ip), vehicle: saline with Tween-80) was 6 of 6 and the survivor count [1] was 5 of 6.

In the case of `O=NN(CCF)C(=O)NCCF`, the T/C (dose: 0.37 mg/kg/injection, schedule: Q01DX009 (ip), vehicle: saline) is reported as 127 % of control, the survivor count (dose: 5.0 mg/kg/injection, schedule: Q01DX009 (ip), vehicle: saline) is reported as 4 of 6 and the survivor count (dose: 10.0 mg/kg/injection, schedule: Q01DX009 (ip), vehicle: saline) is reported as 0 of 6. The survivor count (dose: 20.0 mg/kg/injection, schedule: Q01DX009 (ip), vehicle: saline) was 0 of 6.

`O=NN1CCN(N=O)CC1` was tested, and the survivor count [1] was 0 of 6 and the survivor count [2] was 0 of 6.

With `CCC(C)C(=O)OC1C(=O)OC2CC3C(C)=CC(=O)C(O)C3(C)C3C4(O)OCC23C1C(C)C4O` (stereo unspecified) the T/C (dose: 0.25 mg/kg/injection, schedule: Q01DX009 (ip), vehicle: saline) was 133 % of control, the T/C (dose: 0.5 mg/kg/injection, schedule: Q01DX009 (ip), vehicle: saline) was 132 % of control and the T/C (dose: 1.0 mg/kg/injection, schedule: Q01DX009 (ip), vehicle: saline) was 133 % of control.

For `C/C(=N\NC(=S)N1CCN(Cc2ccccc2)CC1)c1ccccn1`, the T/C (dose: 6.25 mg/kg/injection, schedule: Q01DX005 (ip), vehicle: saline with Tween-80) was 126 % of control (2×), the T/C (dose: 12.5 mg/kg/injection, schedule: Q01DX005 (ip), vehicle: saline with Tween-80) was 137 % of control and the survivor count (dose: 25.0 mg/kg/injection, schedule: Q01DX005 (ip), vehicle: saline with Tween-80) was 4 of 6 and 5 of 6. The survivor count (dose: 50.0 mg/kg/injection, schedule: Q01DX005 (ip), vehicle: saline with Tween-80) was 2 of 6, the survivor count (dose: 100.0 mg/kg/injection, schedule: Q01DX005 (ip), vehicle: saline with Tween-80) was 0 of 6 and the survivor count (dose: 200.0 mg/kg/injection, schedule: Q01DX005 (ip), vehicle: saline with Tween-80) was 0 of 6.

With `O=C(Cc1nc2ccccc2[nH]1)NNC(=S)Nc1ccc(Cl)cc1` the survivor count [3] was 3 of 6.

For `CSc1ncnc2c1ncn2C1OC(CO)C(O)C1O` (stereo unspecified), the T/C (dose: 32.0 mg/kg/injection, schedule: Q01DX010 (ip), vehicle: saline) was 127 and 129 % of control, the T/C (dose: 123.0 mg/kg/injection, schedule: Q01DX001 (ip), vehicle: saline) was 125 and 141 % of control [8 of 9 alive] and the T/C (dose: 185.0 mg/kg/injection, schedule: Q01DX001 (ip), vehicle: saline) was 134 % of control [8 of 9 alive]. For the same compound, the survivor count (dose: 275.0 mg/kg/injection, schedule: Q01DX001 (ip), vehicle: saline) was 2 of 4.

With `CCCCCCCCCCCCCCCC1C(N)C(=O)N(C)N1C` (stereo unspecified) the survivor count [4] was 5 of 6.

`O=C(O)C(Cc1ccc(N(CCCl)CCCl)cc1)C(=O)O` was tested, and the survivor count [1] was 1 of 6 and the survivor count [4] was 0 of 6.

For `CCOc1ccc(N=Nc2c(C)nn(C(N)=S)c2OCC)cc1`, the survivor count (dose: 60.0 mg/kg/injection, schedule: Q01DX005 (ip), vehicle: Klucel (hydroxypropylcellulose) (HPC)) was 1 of 6 and 3 of 6, the survivor count (dose: 120.0 mg/kg/injection, schedule: Q01DX005 (ip), vehicle: Klucel (hydroxypropylcellulose) (HPC)) was 0 of 6 and the survivor count [3] was 0 of 6.

In the case of `c1cc2c3c(c1)c1cc4c(cc1c[n+]3CC2)OCO4`, the T/C (dose: 6.25 mg/kg/injection, schedule: Q01DX009 (ip), vehicle: water) is reported as 127 % of control, the T/C (dose: 12.5 mg/kg/injection, schedule: Q01DX009 (ip), vehicle: water) is reported as 142 % of control and the survivor count (dose: 50.0 mg/kg/injection, schedule: Q01DX009 (ip), vehicle: other) is reported as 0 of 6. For the same compound, the survivor count (dose: 50.0 mg/kg/injection, schedule: Q01DX009 (ip), vehicle: water) was 2 of 6, the survivor count (dose: 100.0 mg/kg/injection, schedule: Q01DX009 (ip), vehicle: other) was 0 of 6 and the survivor count (dose: 100.0 mg/kg/injection, schedule: Q01DX009 (ip), vehicle: water) was 0 of 6. The survivor count (dose: 200.0 mg/kg/injection, schedule: Q01DX009 (ip), vehicle: other) was 0 of 6 and the survivor count (dose: 400.0 mg/kg/injection, schedule: Q01DX009 (ip), vehicle: other) was 0 of 6.

For `COc1cccc2c1C(=O)c1c(O)c3c(c(O)c1C2=O)C[C@@](O)(C(C)O)C[C@@H]3OC1CC(N2CCOCC2)C(O)C(C)O1` (stereo partly specified), the survivor count (dose: 1.56 mg/kg/injection, schedule: Q04DX003 (ip), vehicle: water) was 0 of 6 on day 9, the survivor count (dose: 3.13 mg/kg/injection, schedule: Q04DX003 (ip), vehicle: water) was 0 of 6 on day 9 and the survivor count (dose: 6.25 mg/kg/injection, schedule: Q04DX003 (ip), vehicle: water) was 0 of 6 on day 9. The survivor count (dose: 12.5 mg/kg/injection, schedule: Q04DX003 (ip), vehicle: water) was 0 of 6 on day 9, the survivor count (dose: 25.0 mg/kg/injection, schedule: Q04DX003 (ip), vehicle: water) was 0 of 6 on day 9 and the survivor count (dose: 50.0 mg/kg/injection, schedule: Q04DX003 (ip), vehicle: water) was 0 of 6 on day 9. For the same compound, the survivor count (dose: 800.0 micrograms/kg/injection, schedule: Q04DX003 (ip), vehicle: water) was 5 of 6 on day 9.

`Nc1cc(Nc2cccc(Cl)c2)nc(N)n1` was tested, and the survivor count [2] was 2 of 6.

With `[CH3][Sn]1([CH3])[O]C(=O)c2ccccc2C(=O)[O]1` the T/C [5] was 129 % of control, the survivor count [5] was 2 of 6 and the survivor count (dose: 200.0 mg/kg/injection, schedule: Q01DX001 (ip), vehicle: Klucel (hydroxypropylcellulose) (HPC)) was 0 of 6. The survivor count (dose: 400.0 mg/kg/injection, schedule: Q01DX001 (ip), vehicle: Klucel (hydroxypropylcellulose) (HPC)) was 0 of 6.

In the case of `COC(=O)C1CC(OC(C)=O)C(O)C(O)C1OC(C)=O.[O]=[Os]=[O]` (stereo unspecified), the T/C (dose: 100.0 mg/kg/injection, schedule: Q01DX001 (ip), vehicle: saline) is reported as 127 % of control and the survivor count (dose: 400.0 mg/kg/injection, schedule: Q01DX001 (ip), vehicle: saline) is reported as 0 of 6.

In the case of `NC(=S)N/N=C\c1nccc2ncccc12`, the T/C (dose: 25.0 mg/kg/injection, schedule: Q04DX002 (ip), vehicle: saline with Tween-80) is reported as 125 % of control.

With `Cc1c2c(ccc3ccccc32)c[n+]2ccccc12` the survivor count (dose: 25.0 mg/kg/injection, schedule: Q04DX003 (ip), vehicle: other) was 2 of 6, the T/C (dose: 25.0 mg/kg/injection, schedule: Q04DX003 (ip), vehicle: saline) was 136 % of control [5 of 6 alive] and the survivor count (dose: 50.0 mg/kg/injection, schedule: Q04DX003 (ip), vehicle: other) was 0 of 6. The survivor count (dose: 100.0 mg/kg/injection, schedule: Q04DX003 (ip), vehicle: other) was 0 of 6.

`COc1cc(NCCN(C(C)C)C(C)C)c2ncccc2c1` was tested, and the survivor count (dose: 100.0 mg/kg/injection, schedule: Q01DX005 (ip), vehicle: saline) was 0 of 5 and the survivor count (dose: 200.0 mg/kg/injection, schedule: Q01DX005 (ip), vehicle: saline) was 0 of 5.

With `O=C1NC(O)c2cccc(Cl)c2O1` (stereo unspecified) the survivor count (dose: 400.0 mg/kg/injection, schedule: Q01DX005 (ip), vehicle: saline with Tween-80) was 0 of 5.

`CCOC(=O)N1C=CC2(C=C1)CCCCC2` was tested, and the survivor count (dose: 100.0 mg/kg/injection, schedule: Q04DX003 (ip), vehicle: Klucel (hydroxypropylcellulose) (HPC)) was 4 of 6.

For `C=C1C(=O)OC2CC1C(OC(C)=O)CC1(C)OC1CCC1(C)OC1CCC2(C)O` (stereo unspecified), the T/C (dose: 50.0 mg/kg/injection, schedule: Q01DX009 (ip), vehicle: Klucel (hydroxypropylcellulose) (HPC)) was 126 % of control and the T/C (dose: 100.0 mg/kg/injection, schedule: Q01DX009 (ip), vehicle: Klucel (hydroxypropylcellulose) (HPC)) was 128 % of control [5 of 6 alive].

With `CC(=O)NC(C)CC1=CC(=O)C(C)=CC1=O` (stereo unspecified) the survivor count (dose: 50.0 mg/kg/injection, schedule: Q01DX001 (ip), vehicle: Klucel (hydroxypropylcellulose) (HPC)) was 0 of 6 and the survivor count [5] was 0 of 6.

With `C1=C[N-]c2c3c(ccc2=C1)=CC=C[N-]3.O=S(=O)(O)O.[Zn+2]` the survivor count (dose: 100.0 mg/kg/injection, schedule: Q04DX002 (ip), vehicle: Klucel (hydroxypropylcellulose) (HPC)) was 0 of 6, the survivor count (dose: 200.0 mg/kg/injection, schedule: Q04DX002 (ip), vehicle: Klucel (hydroxypropylcellulose) (HPC)) was 0 of 6 and the survivor count (dose: 400.0 mg/kg/injection, schedule: Q04DX002 (ip), vehicle: Klucel (hydroxypropylcellulose) (HPC)) was 0 of 6.
